Experimental data published in PubChem BioAssay (NCATS).
The inconclusive results got no clear call from the source; some entries with a clear call stand among them for comparison. A potency beside an inconclusive call is a rough fit, not a confirmed value. The source made the active and inactive calls. Calls come from the whole dose curve; as a rule, active = well fitted cell-killing curve with a large enough effect; inconclusive = small, poorly fitted or top-dose-only effect, or effect the other way; inactive = no such curve, though single readings can be large or run the other way.

Assay: Quantitative High-Throughput drug screen in 47 multiple myeloma cell lines against the NCATS MIPE library collection: OCIMY5_PLB cell viability assay (AID 1918988); note: nearly all actives have a fitted effect of over 65% in size;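 for viability, % of control: 100% = DMSO-treated wells and 0% = wells with media alone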
Details: OCI-MY5 myeloma viability, ATP luminescence, 48 h; viability, % of control: at 45.8 µM (top of the series)
Summary of the method: (§1)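 500 cells/well; MIPE 4.0 drugs pin-transferred; 48 h, 37C, 5% CO2. CellTiter-Glo, 5 min RT, luminescence. Controls: DMSO 100%, media 0%.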
Potency is the fitted concentration of half-maximal effect.

| Compound | viability, % of control | Potency |
| --- | --- | --- |
| Cc1onc(-c2ccccc2)c1C(=O)N[C@@H]1C(=O)N2[C@@H](C(=O)O)C(C)(C)S[C@@H]12 | inactive: 184% |  |
| CC[C@H](C=C[C@@H](C)[C@H]1CC[C@H]2[C@@H]3CC=C4C[C@@H](O)CC[C@]4(C)[C@@H]3CC[C@]12C)C(C)C |  | inconclusive: 18.2 µM [cytotoxic, partial curve, poor fit] |
| N=C(N=C(N)N)N1CCOCC1 |  | inconclusive: 14.8 µM [cytotoxic, partial curve, poor fit] |
| O=C(NC1CCOCC1)c1ccc(-c2cc(-c3cn[nH]c3-c3ccccn3)ccn2)cc1 |  | inconclusive: 3.72 µM [cytotoxic, full curve, poor fit] |
| CC[C@H]1OC(=O)[C@H](C)[C@@H](O[C@H]2C[C@@](C)(OC)[C@@H](O)[C@H](C)O2)[C@H](C)[C@@H](O[C@@H]2O[C@H](C)C[C@H](N(C)C)[C@@H]2O)[C@](C)(OC)C[C@@H](C)C(=O)[C@H](C)[C@@H](O)[C@]1(C)O |  | inconclusive: 14.8 µM [cytotoxic, partial curve, poor fit] |
| CCOC(=O)Nc1ccc(NCc2ccc(F)cc2)nc1N |  | inconclusive: 0.743 µM [cytotoxic, full curve, poor fit] |
| CCn1cc(C(=O)O)c(=O)c2cc(F)c(N3CCNCC3)nc21 | inactive: 147% |  |
| CCN(CC)CCOc1ccc(C(=C(Cl)c2ccccc2)c2ccccc2)cc1 |  | inconclusive: 37.2 µM [cytotoxic, single point] |
| O=C(O)c1ccc(-c2cc3cccnc3c(-c3ccc4nonc4c3)n2)cc1 |  | inconclusive: 26.4 µM [cytotoxic, partial curve, poor fit] |

Assay: Quantitative High-Throughput drug screen in 47 multiple myeloma cell lines against the NCATS MIPE library collection: OPM1_PLB cell viability assay (AID 1918989); note: nearly all actives have a fitted effect of over 40% in size
Details: CellTiter-Glo, 48 h; series mostly up to 45.8 µM; viability (% of control): at the top concentration
Summary of the method: as §1

| Compound | Potency | viability (% of control) |
| --- | --- | --- |
| CC(C)NCC(O)COc1ccc(COCCOC(C)C)cc1 (centres undefined) | inconclusive: 0.935 µM [cytotoxic, full curve, poor fit] |  |
| OCCN(CCO)c1nc(N2CCCCC2)c2nc(N(CCO)CCO)nc(N3CCCCC3)c2n1 | inconclusive: 20.9 µM [cytotoxic, partial curve, poor fit] |  |
| CN1CCN(Cc2ccc(NC(=O)Nc3ccc(Oc4cc(NC(=O)C5CC5)ncn4)cc3)cc2C(F)(F)F)CC1 | active: 0.166 µM |  |
| C=CCc1ccc(O)c(-c2ccc(O)c(CC=C)c2)c1 | inconclusive: 29.6 µM [cytotoxic, single point] |  |
| O=C(C1CC1)N1CC[C@@H](Cn2c(-c3ccc(-c4ccc5occc5c4)cc3)nc3cnccc32)C1 | inconclusive: 18.7 µM [cytotoxic, partial curve] |  |
| O=c1c(O)c(-c2cc(O)c(O)c(O)c2)oc2cc(O)cc(O)c12 | inconclusive: 16.6 µM [cytotoxic, partial curve, poor fit] |  |
| CCOC(CN1C(=O)[C@](CC(=O)Nc2ccc(C)cc2)(NC(=O)Nc2ccc(C)cc2)c2ccccc21)OCC | inconclusive: 37.2 µM [cytotoxic, single point] |  |
| COC1CCC(N(C(=O)C2CCC(C)CC2)c2cc(C3=CCCCC3)sc2C(=O)O)CC1 (centres undefined) | inconclusive: 37.2 µM [cytotoxic, single point] |  |
| NC(=O)c1ncn([C@@H]2O[C@H](CO)[C@@H](O)[C@@H]2O)c1N |  | inactive: 131% |
| CO[C@H]1/C=C\O[C@@]2(C)Oc3c(C)c(O)c4c(O)c(c5c(nc6cc(C)ccn65)c4c3C2=O)NC(=O)C(C)=CC=C[C@H](C)[C@H](O)[C@@H](C)[C@@H](O)[C@@H](C)[C@H](OC(C)=O)[C@H]1C | inconclusive: 29.6 µM [cytotoxic, single point] |  |
| N#Cc1cc(NC(=O)Nc2nnc(-c3ccncc3)s2)ccc1-c1cn[nH]c1 |  | inactive: 134% |
| CN(C)c1ccc(O)c2c1C[C@H]1C[C@H]3[C@H](N(C)C)C(=O)C(C(N)=O)=C(O)[C@@]3(O)C(=O)C1=C2O | inconclusive: 20.9 µM [cytotoxic, partial curve, poor fit] |  |
| C=C[C@@H]1CN2CCC1C[C@@H]2C(O)c1ccnc2ccc(OC)cc12 (some centres undefined) | inconclusive: 9.35 µM [cytotoxic, partial curve, poor fit] |  |
| CCOC(=O)N[C@@H]1CC[C@@H]2[C@@H](C1)C[C@H]1C(=O)O[C@H](C)[C@H]1[C@@H]2C=Cc1ccc(-c2cccc(F)c2)cn1 | inconclusive: 0.59 µM [rising, full curve, poor fit] |  |
| N[C@@H](Cc1cc(I)c(Oc2cc(I)c(O)c(I)c2)c(I)c1)C(=O)O |  | inactive: 122% |

Entries of single compounds as entered above:
`O=C(C1CC1)N1CC[C@@H](Cn2c(-c3ccc(-c4ccc5occc5c4)cc3)nc3cnccc32)C1` reads Potency: inconclusive: 18.7 µM [cytotoxic, partial curve]
`N[C@@H](Cc1cc(I)c(Oc2cc(I)c(O)c(I)c2)c(I)c1)C(=O)O` reads viability (% of control): inactive: 122%
